Taken from: PubChem BioAssay AID1053209 (Peter MacCallum Cancer Centre, 2014)

Test: 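Knock-downs that sensitise mouse osteosarcoma cells to doxorubicin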 (follow-up of hits)
Cells: mouse primary osteosarcoma cells
Knock-down reagent: single siRNA against mouse genes, 25 nM (text also states 40 nM)
Timing: about 120 h (48 h before drug, then 72 h with drug)
Treatment: doxorubicin 100 nM (about IC30-40), added 48 h after transfection, for 72 h
Detection: 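ATP-based luminescent viability, with or without doxorubicin, relative to non-targeting control NT1, mean of two replicates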
Reading the numbers: viability with doxorubicin, vs NT1: higher = more viable cells under doxorubicin; viability without drug, vs NT1: higher = more viable cells without drug
Rule for the call: 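Active when doxorubicin viability is at most 0.7 of NT1 and drug-free viability lies between 0.7 and 1.1, class LC dox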
In all, the deposit lists about 1,580 reagents; below is a part drawn at random. 207 of them (13%) count as active. 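Rows are single siRNAs; four siRNAs per gene were tested, a gene counting as confirmed only when at least two agree.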 The numbers tell different reagents against one gene apart. Not all columns of the deposit are shown.

{"gene knocked down":"Napa","siRNA no.":1,"combined effect class":"normal viability with and without drug","viability with doxorubicin, vs NT1":0.72,"viability without drug, vs NT1":0.84,"Call":"inactive"}
{"gene knocked down":"Napa","siRNA no.":2,"combined effect class":"low viability only with doxorubicin; normal without drug","viability with doxorubicin, vs NT1":0.39,"viability without drug, vs NT1":0.77,"Call":"active"}
{"gene knocked down":"Napa","siRNA no.":3,"combined effect class":"low viability only with doxorubicin; normal without drug","viability with doxorubicin, vs NT1":0.64,"viability without drug, vs NT1":0.87,"Call":"active"}
{"gene knocked down":"Napa","siRNA no.":4,"combined effect class":"normal viability with and without drug","viability with doxorubicin, vs NT1":0.94,"viability without drug, vs NT1":0.96,"Call":"inactive"}
{"gene knocked down":"Pold3","siRNA no.":1,"combined effect class":"normal viability with and without drug","viability with doxorubicin, vs NT1":0.72,"viability without drug, vs NT1":0.9,"Call":"inactive"}
{"gene knocked down":"Pold3","siRNA no.":2,"combined effect class":"normal viability with and without drug","viability with doxorubicin, vs NT1":0.86,"viability without drug, vs NT1":0.91,"Call":"inactive"}
{"gene knocked down":"Pold3","siRNA no.":3,"combined effect class":"normal viability with and without drug","viability with doxorubicin, vs NT1":0.8,"viability without drug, vs NT1":0.93,"Call":"inactive"}
{"gene knocked down":"Pold3","siRNA no.":4,"combined effect class":"normal viability with and without drug","viability with doxorubicin, vs NT1":0.72,"viability without drug, vs NT1":0.89,"Call":"inactive"}
{"gene knocked down":"Sars1","siRNA no.":1,"combined effect class":"low viability only with doxorubicin; normal without drug","viability with doxorubicin, vs NT1":0.69,"viability without drug, vs NT1":0.73,"Call":"active"}
{"gene knocked down":"Sars1","siRNA no.":2,"combined effect class":"normal viability with and without drug","viability with doxorubicin, vs NT1":1,"viability without drug, vs NT1":1.03,"Call":"inactive"}
{"gene knocked down":"Sars1","siRNA no.":3,"combined effect class":"low viability with and without drug","viability with doxorubicin, vs NT1":0.53,"viability without drug, vs NT1":0.59,"Call":"inactive"}
{"gene knocked down":"Sars1","siRNA no.":4,"combined effect class":"high viability only with doxorubicin","viability with doxorubicin, vs NT1":1.14,"viability without drug, vs NT1":1.06,"Call":"inactive"}
{"gene knocked down":"Psmc1","siRNA no.":1,"combined effect class":"low viability with and without drug","viability with doxorubicin, vs NT1":0.49,"viability without drug, vs NT1":0.59,"Call":"inactive"}
{"gene knocked down":"Psmc1","siRNA no.":2,"combined effect class":"low viability with and without drug","viability with doxorubicin, vs NT1":0.15,"viability without drug, vs NT1":0.44,"Call":"inactive"}
{"gene knocked down":"Psmc1","siRNA no.":3,"combined effect class":"low viability with and without drug","viability with doxorubicin, vs NT1":0.08,"viability without drug, vs NT1":0.38,"Call":"inactive"}
{"gene knocked down":"Psmc1","siRNA no.":4,"combined effect class":"low viability with and without drug","viability with doxorubicin, vs NT1":0.22,"viability without drug, vs NT1":0.5,"Call":"inactive"}

Targets above whose target name begins with N or n:
{"gene knocked down":"Napa","siRNA no.":1,"combined effect class":"normal viability with and without drug","viability with doxorubicin, vs NT1":0.72,"viability without drug, vs NT1":0.84,"Call":"inactive"}
{"gene knocked down":"Napa","siRNA no.":2,"combined effect class":"low viability only with doxorubicin; normal without drug","viability with doxorubicin, vs NT1":0.39,"viability without drug, vs NT1":0.77,"Call":"active"}
{"gene knocked down":"Napa","siRNA no.":3,"combined effect class":"low viability only with doxorubicin; normal without drug","viability with doxorubicin, vs NT1":0.64,"viability without drug, vs NT1":0.87,"Call":"active"}
{"gene knocked down":"Napa","siRNA no.":4,"combined effect class":"normal viability with and without drug","viability with doxorubicin, vs NT1":0.94,"viability without drug, vs NT1":0.96,"Call":"inactive"}

The listing continues.
{"gene knocked down":"Slc39a7","siRNA no.":1,"combined effect class":"normal viability with and without drug","viability with doxorubicin, vs NT1":0.86,"viability without drug, vs NT1":0.92,"Call":"inactive"}
{"gene knocked down":"Slc39a7","siRNA no.":2,"combined effect class":"low viability only with doxorubicin; normal without drug","viability with doxorubicin, vs NT1":0.63,"viability without drug, vs NT1":0.88,"Call":"active"}
{"gene knocked down":"Slc39a7","siRNA no.":3,"combined effect class":"normal viability with and without drug","viability with doxorubicin, vs NT1":0.73,"viability without drug, vs NT1":0.97,"Call":"inactive"}
{"gene knocked down":"Slc39a7","siRNA no.":4,"combined effect class":"low viability only with doxorubicin; normal without drug","viability with doxorubicin, vs NT1":0.6,"viability without drug, vs NT1":0.78,"Call":"active"}
{"gene knocked down":"Rpl9","siRNA no.":1,"combined effect class":"low viability with and without drug","viability with doxorubicin, vs NT1":0.32,"viability without drug, vs NT1":0.31,"Call":"inactive"}
{"gene knocked down":"Rpl9","siRNA no.":2,"combined effect class":"low viability with and without drug","viability with doxorubicin, vs NT1":0.24,"viability without drug, vs NT1":0.37,"Call":"inactive"}
{"gene knocked down":"Rpl9","siRNA no.":3,"combined effect class":"low viability with and without drug","viability with doxorubicin, vs NT1":0.24,"viability without drug, vs NT1":0.2,"Call":"inactive"}
{"gene knocked down":"Rpl9","siRNA no.":4,"combined effect class":"low viability with and without drug","viability with doxorubicin, vs NT1":0.25,"viability without drug, vs NT1":0.33,"Call":"inactive"}
{"gene knocked down":"Slc35b3","siRNA no.":1,"combined effect class":"normal viability with and without drug","viability with doxorubicin, vs NT1":1.04,"viability without drug, vs NT1":1.04,"Call":"inactive"}
{"gene knocked down":"Slc35b3","siRNA no.":2,"combined effect class":"normal viability with and without drug","viability with doxorubicin, vs NT1":0.8,"viability without drug, vs NT1":0.94,"Call":"inactive"}
{"gene knocked down":"Slc35b3","siRNA no.":3,"combined effect class":"normal viability with and without drug","viability with doxorubicin, vs NT1":1,"viability without drug, vs NT1":1.04,"Call":"inactive"}
{"gene knocked down":"Slc35b3","siRNA no.":4,"combined effect class":"normal viability with and without drug","viability with doxorubicin, vs NT1":0.96,"viability without drug, vs NT1":1.02,"Call":"inactive"}
